Not every detail of the peptide structures is certain; ends, links or a residue may be inferred.
Experiment: Circular dichroism helicity determination
Type: physicochemical
Conditions: percent helicity
Description: Far UV circular dichroism spectra were recorded between 190 and 260 nm (in 0.5 nm or 0.2 nm increments) with a AVIV62DS spectrometer (AVIV Associates, Lakewood, N.J., USA) equipped with a thermoelectric cell holder and sample changer. The instrument was calibrated with (+)-10-[…]. Between one and three scans were collected for each sample, using 10 cm, 5 cm, 1 cm and 0.1 cm path length quartz Suprasil cells, respectively, for peptide concentrations of 10^−7 M to 10^−4 M. The bandwidth was fixed at 1.5 nm and the scan speed to 1s per wavelength step. The reported data are the mean of at least 2 or 3 independent measurements.
After background substraction, spectra were converted to molar ellipticity (θ) per residue in deg. […] dmol^−1. The peptide concentration was determined by amino acid analysis and also by absorption spectrometry on a Perkin Elmer Lambda 17 UV/Visible spectrophotometer when the peptide contained a chromophore (tryptophane, dansyl, naphtylalanine).
CD spectra were obtained with free, unbound peptide (5 μM in 5 mM phosphate buffer, pH 7.4); with peptide-SUV complexes (20:1 EPC:Chol., Ri=30 and Ri=50); with peptide-micelle complexes (1-myristoyl-2-hydroxy-sn-glycero-3-phosphatidyl choline, Ri=100); and with free, unbound peptide in the presence of 2,2,2-trifluoroethanol (TFE) (5 μM peptide, 90% vol TFE). […]
All spectra were recorded at 37° C. […]

Substance: Ac-EWLEAFYKKVLEKLKELF-NH2 [compound 239, reference compound]
- He (%) free (free, unbound peptide 5 μM in 5 mM phosphate buffer, pH 7.4, 37° C.): 44%
- He (%) mics (peptide-micelle complexes, Ri=100, 37° C.): 49%
